PubChem BioAssay AID1117319 (Southern Research Institute, 2015)
About 1,500 (0.58%) of roughly 260,000 compounds were called active. Inconclusive results, whose numbers are uncertain, are shown with a selection of clear calls.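 How the source made its calls: active means inhibition above a set limit at one or more doses, reproduced on every date tested; inconclusive means results disagree between test dates, or hit never tested in dose response; inactive means the rest.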

The chains behind the UniProt entries cited, without tags or fusion partners. Where a name states a change or a piece, a line headed by the entry shows the natural chain unless it says otherwise.
UniProt P69720: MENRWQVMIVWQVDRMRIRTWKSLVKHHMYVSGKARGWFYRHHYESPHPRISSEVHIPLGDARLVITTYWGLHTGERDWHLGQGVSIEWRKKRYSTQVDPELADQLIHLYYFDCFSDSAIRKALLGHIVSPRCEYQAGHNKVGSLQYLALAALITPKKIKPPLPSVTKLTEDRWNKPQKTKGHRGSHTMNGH
UniProt P69721: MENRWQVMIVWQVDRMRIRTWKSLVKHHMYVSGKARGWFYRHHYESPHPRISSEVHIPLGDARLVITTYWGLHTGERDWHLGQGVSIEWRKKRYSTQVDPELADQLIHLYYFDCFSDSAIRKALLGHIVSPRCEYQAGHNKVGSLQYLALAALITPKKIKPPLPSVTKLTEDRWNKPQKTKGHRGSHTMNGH
UniProt P69722: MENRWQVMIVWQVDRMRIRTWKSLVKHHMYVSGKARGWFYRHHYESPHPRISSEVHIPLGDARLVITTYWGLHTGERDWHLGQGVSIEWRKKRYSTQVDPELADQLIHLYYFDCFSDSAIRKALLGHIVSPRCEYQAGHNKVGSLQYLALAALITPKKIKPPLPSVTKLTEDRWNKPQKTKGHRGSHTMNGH
UniProt P69723: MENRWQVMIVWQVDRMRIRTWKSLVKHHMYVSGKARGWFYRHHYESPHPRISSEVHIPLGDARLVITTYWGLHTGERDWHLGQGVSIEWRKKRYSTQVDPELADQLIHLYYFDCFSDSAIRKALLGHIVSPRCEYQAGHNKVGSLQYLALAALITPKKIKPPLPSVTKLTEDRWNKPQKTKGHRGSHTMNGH
UniProt Q9HC16: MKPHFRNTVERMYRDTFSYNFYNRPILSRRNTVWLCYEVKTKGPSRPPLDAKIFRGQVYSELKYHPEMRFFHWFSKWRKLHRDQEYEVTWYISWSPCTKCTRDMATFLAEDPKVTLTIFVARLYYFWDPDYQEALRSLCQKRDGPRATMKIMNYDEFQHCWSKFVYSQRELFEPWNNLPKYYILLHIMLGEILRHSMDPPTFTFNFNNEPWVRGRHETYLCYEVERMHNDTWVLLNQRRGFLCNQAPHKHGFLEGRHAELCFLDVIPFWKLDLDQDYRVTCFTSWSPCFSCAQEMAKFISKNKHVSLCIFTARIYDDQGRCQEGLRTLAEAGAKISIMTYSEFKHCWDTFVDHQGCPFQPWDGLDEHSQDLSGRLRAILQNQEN

These compounds were tested against Virion infectivity factor (Human immunodeficiency virus type 1 group M subtype B (isolate BH10)) + Virion infectivity factor (Human immunodeficiency virus type 1 group M subtype B (isolate BRU/LAI)) + Virion infectivity factor (Human immunodeficiency virus type 1 group M subtype B (isolate PCV12)) + Virion infectivity factor (Human immunodeficiency virus type 1 group M subtype B (isolate HXB2)) + DNA dC->dU-editing enzyme APOBEC-3G (Homo sapiens) (UniProt P69720+P69721+P69722+P69723+Q9HC16) (assay: inhibitors of Vif binding to APOBEC3G peptide, primary screen, biochemical, TR-FRET, GST-Vif 1-94, biotin-A3G peptide, dose response retest (AID 1117319;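 further: Vif residues 1-94 fused to GST binding biotinylated APOBEC3G peptide 110-148; 0% = full assay without inhibitor and 100% = GST in place of GST-Vif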)). Details: stronger effect = higher value.
With `O=C(Nc1nn[nH]n1)c1ccc(S(=O)(=O)N2CCCCC2)cc1` the inhibition was inconclusive: 44.2%.
With `CC12C=CC3(CN(Cc4ccccc4)C(=O)C3C1C(=O)NCc1ccco1)O2` (stereo unspecified) the inhibition was inconclusive: 45.2%.
With `O=c1c2c3c(sc2n(CCN2CCCCC2)c(=O)n1Cc1ccco1)CCCCC3` the inhibition was inactive: 30.5%.
With `CCN(CC)S(=O)(=O)c1cccc(-c2nnc(SCC(=O)NC3CCCC3)n2N)c1` the inhibition was inconclusive: 36.7%.
`O=C(Nc1ccc2c(c1)OCO2)c1cc2ncc(Br)cn2n1` was tested, and the inhibition was inactive: 6.91%.
For `CCOC(=O)C1=C(C)N=C2SCCC(=O)N2C1c1ccc(C(=O)OC)cc1` (stereo unspecified), the inhibition was inconclusive: 41.4%.
`Cc1ccccc1C(=O)NC(=S)Nc1ccc(Oc2ccc(Cl)cc2)cc1` was tested, and the inhibition was inconclusive: 55.6%.
For `CCOC(=O)c1ccc(Cl)c(NC(=O)c2ccc(-c3ccccc3)cc2)c1`, the inhibition was inconclusive: 33.4%.
With `Cc1ccc(OCc2nnc(SCCN3CCOCC3)n2C)cc1` the inhibition was inconclusive: 57.6%.
With `CN(CCC#N)C(=O)CC(Cc1ccccc1)C1CCOC(C)(C)C1` (stereo unspecified) the inhibition was inactive: 28.5%.
With `CCn1c(SCC(=O)N2CCCc3ccccc32)nc2cccnc21` the inhibition was inconclusive: 40.3%.
For `Cc1ccc(NC(=O)N/C=C/c2ccco2)cc1C`, the inhibition was inconclusive: 40.5%.
For `COc1ccc(-c2cnnn2-c2ccc(N)cc2)cc1OC`, the inhibition was inconclusive: 45.2%.
In the case of `CCOC(=O)c1[nH]cnc1C(=O)O`, the inhibition is reported as inconclusive: 25.6%.
With `CC(=O)C1=C(C)Nc2ncnn2C1c1ccc(Cl)cc1` (stereo unspecified) the inhibition was inconclusive: 45.8%.
In the case of `O=C(NC1(O)C(=O)c2ccccc2C1=O)c1ccc(C(F)(F)F)cc1`, the inhibition is reported as inconclusive: 33%.
In the case of `C=CCOc1ccc(C2C(C(=O)c3ccco3)=C(O)C(=O)N2Cc2cccnc2)cc1` (stereo unspecified), the inhibition is reported as inconclusive: 46.9%.
`CCN(CC)C(=O)C(=O)c1cn(CC(=O)N2CCc3ccccc3C2)c2ccccc12` was tested, and the inhibition was inconclusive: 33.7%.
With `O=C(CSc1ccsc1[N+](=O)[O-])Nc1cc(F)ccc1F` the inhibition was inconclusive: 61.8%.
`CC(C)(C)N(Cc1cc2ccccc2[nH]c1=O)C(=O)C1CCCCC1` was tested, and the inhibition was inconclusive: 41.6%.
For `Cc1cccc(NC(=O)CSc2nnc(-c3ccco3)c(-c3ccco3)n2)c1`, the inhibition was inconclusive: 64%.
In the case of `Cc1cccn2c(=O)c3cc(C#N)c(=NC(=O)c4ccco4)n(Cc4ccco4)c3nc12`, the inhibition is reported as inconclusive: 36.4%.
`Cc1ccc(NS(=O)(=O)c2c(C)[nH]c(=O)[nH]c2=O)cc1C` was tested, and the inhibition was inactive: 0.84%.
In the case of `Cc1ccc(NC(=O)c2noc3c2CCC3)cc1C`, the inhibition is reported as inactive: -3.45%.
`Cc1ccc(S(=O)(=O)Cn2nnnc2C(CC(C)C)N2CCN(c3ccc(F)cc3)CC2)cc1` (stereo unspecified) was tested, and the inhibition was inconclusive: 45.6%.
For `CCOc1cc(-c2cc(-c3ccc(N)cc3)nc(N)c2C#N)ccc1O`, the inhibition was inconclusive: 33.3%.
In the case of `Cc1c(OCc2nn[nH]n2)ccc2c(-c3ccccc3)cc(=O)oc12`, the inhibition is reported as inconclusive: 38.6%.
For `CC(=O)NCCn1c(SCc2ccc(C)cc2C)nc2ccccc2c1=O`, the inhibition was inactive: -4.41%.
For `O=C(COC(=O)c1c2c(nc3ccccc13)/C(=C/c1cccc([N+](=O)[O-])c1)CCC2)NC1CCS(=O)(=O)C1` (stereo unspecified), the inhibition was inactive: 29.1%.
`CS(=O)(=O)N(CC(=O)NCc1ccco1)c1ccc(Cl)cc1Cl` was tested, and the inhibition was inconclusive: 60.9%.
In the case of `C=CCn1c(C)cc(C(=O)COC(=O)c2ccc3c(c2)NC(=O)CS3)c1C`, the inhibition is reported as inconclusive: 58.8%.
In the case of `O=C(O)CSc1cc(C(=O)c2ccccc2O)cn2c(=O)c3c(-c4ccccc4)csc3nc12`, the inhibition is reported as inconclusive: 36.4%.
For `Cc1cc(C)nc(SCc2nnc(SCc3ccc([N+](=O)[O-])cc3)n2Cc2ccco2)n1`, the inhibition was inconclusive: 37%.
`O=C(CSc1nc2ccccc2c(=O)n1-c1ccc(Cl)cc1)N/N=C/C=C/c1ccccc1[N+](=O)[O-]` was tested, and the inhibition was inconclusive: 52.5%.
For `C[C@@H]1C=C(C(=O)N2CCN(Cc3ccc4c(c3)OCO4)CC2)O[C@H](OCCCCO)C1`, the inhibition was inconclusive: 34.2%.
With `CCCc1c(C)c2c(C)[nH]nc2oc1=O` the inhibition was inconclusive: 37.9%.
In the case of `C=CCn1c(SCC(=O)NC)nc2sc3c(c2c1=O)CCC3`, the inhibition is reported as inconclusive: 46.5%.
In the case of `NC(=O)c1cc(Br)cc(C2CCCCC2)c1O`, the inhibition is reported as inconclusive: 57.3%.
In the case of `COC(=O)/C=C\C(=O)Nc1cccc([N+](=O)[O-])c1`, the inhibition is reported as inconclusive: 35.9%.
With `O=C(CCCN1C(=O)CCC1=O)Nc1cccc(C(F)(F)F)c1` the inhibition was inconclusive: 33.2%.
With `CCOC(=O)n1c(=O)oc2cc(S(=O)(=O)N3CCOCC3)ccc21` the inhibition was inactive: 9.96%.
`COc1ccc(OC)c(-c2nnc(-c3ccc(C)o3)o2)c1` was tested, and the inhibition was inconclusive: 47.8%.
For `O=C(O)c1ccc(CSc2nnc(-c3cccnc3)n2-c2ccc(Br)cc2)cc1`, the inhibition was inconclusive: 58.5%.
For `Cc1cc(/C=C2\C(=N)N3N=C(c4ccco4)SC3=NC2=O)c(C)n1Cc1ccccc1`, the inhibition was inconclusive: 33.9%.
For `CCN(CC(=O)Nc1sc2c(c1C#N)CCCC2)Cc1nc2ccccc2c(=O)[nH]1`, the inhibition was inconclusive: 49.5%.
For `O=[N+]([O-])c1ccc(/C=C2\CCC(C3=CCCC3)=C2N2CCOCC2)cc1`, the inhibition was inconclusive: 59.7%.
With `COc1ccc2c(c1)[nH]c1c(=O)n(CCN3CCOCC3)cnc12` the inhibition was inconclusive: 51.6%.
For `CC(=O)c1ccc(NC(=O)c2noc3c2CCC3)cc1`, the inhibition was inactive: -4.79%.
`COc1ccccc1-c1c(C)c(C)nc(N)c1C#N` was tested, and the inhibition was inconclusive: 34.8%.
With `Cc1cccc(NC(=O)C2CC(=O)NC(Nc3nc4ccccc4s3)=N2)c1` (stereo unspecified) the inhibition was inactive: 11.6%.
In the case of `CCn1c(SCC(=O)Nc2nccs2)nnc1-c1ccccc1`, the inhibition is reported as inconclusive: 45.5%.
For `CSCCC(NC(=O)COc1ccccc1)C(=O)N(C)CC(=O)Nc1ccc(C)cc1` (stereo unspecified), the inhibition was inconclusive: 36.4%.
In the case of `C=CCN(c1ccccc1)S(=O)(=O)c1cccc(C(=O)N2CCN(c3ncccn3)CC2)c1`, the inhibition is reported as inconclusive: 51.2%.
In the case of `Cc1ccc(/C=c2\sc3nc(-c4ccccc4Br)nn3c2=O)o1`, the inhibition is reported as inconclusive: 56.7%.
For `CCc1oc(C(=O)O)cc1CN(CC)CC`, the inhibition was inactive: 19%.
With `CC(=O)c1cccc(NC(=O)Nc2ccc(C(=O)N3CCOCC3)cc2)c1` the inhibition was inconclusive: 33%.
